The list shows a part of the results.

By UniProt entry, the sequences of proteins in these tests, tags left out.
UniProt Q0JBA9, entry or part of it: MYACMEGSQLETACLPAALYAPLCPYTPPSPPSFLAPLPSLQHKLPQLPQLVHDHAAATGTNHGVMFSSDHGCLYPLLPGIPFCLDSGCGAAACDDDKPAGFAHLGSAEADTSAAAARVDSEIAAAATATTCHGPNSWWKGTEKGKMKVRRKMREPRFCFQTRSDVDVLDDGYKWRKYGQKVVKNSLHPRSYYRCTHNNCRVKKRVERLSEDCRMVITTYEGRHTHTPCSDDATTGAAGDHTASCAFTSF

This test addresses OsWRKY34 (Oryza sativa, UniProt Q0JBA9 1-250). Description: protein-binding microarray (RPBM); PBS, 2% BSA, 51.3 ng/ul salmon testes DNA, 50 uM zinc acetate, 200 nM TF, 25 C, 1 h; high values mean tight binding. The following applies: protein: recombinant; tags: N-terminal polyhistidine and DsRed monomer fusion (pET32a); label: CyDye5-dUTP incorporated in the synthesized complementary strand; 3' TTTTT single-stranded linker to array surface; dsDNA, one strand shown. In a few lines: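 The binding signal is fluorescence intensity per array feature (arbitrary units). Readings came from an Axon 4000B scanner after a washed, 2% BSA-blocked, double-stranded custom Agilent array had been incubated for 1 h at 25 °C with 200 nM protein and 50 µM zinc acetate. The protein was a Ni–NTA-purified transcription factor fused N-terminally to polyhistidine and DsRed, expressed in E. coli BL21-CodonPlus.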
Regarding “GAGCCGCTGGCATCTGGGCCCCATCTTCTCGTCCCCAATCCGGAGTCACCTAGTGCAG”, the binding signal was 8370 fluorescence intensity (a.u.).

“GCAGGCAGGATGTTACTATGGCCACGTTTAGTTGGTTAGTCGGAGTCACCTAGTGCAG”: the binding signal was 8890 fluorescence intensity (a.u.).

Consider “CTCCACTGCTCTGATGCTCTCTCTCTCTCTCTCTTCACGCCGGAGTCACCTAGTGCAG”, for which the binding signal is 10800 fluorescence intensity (a.u.).

In the case of “TTCCTCTCCCGCGACACCATCTTCGACCGCGTCCGGCTGCCGGAGTCACCTAGTGCAG”, the binding signal is 9740 fluorescence intensity (a.u.).

Take “GGCTATGTCTGTCTACCTAATGGTTTTCTGTTTTCTTGGTCGGAGTCACCTAGTGCAG”: the binding signal was 9420 fluorescence intensity (a.u.).

As for “ATTTGGCAACATTCCCTGTATTTTTCCCTGTTCATTGTTCCGGAGTCACCTAGTGCAG”, the binding signal was 8730 fluorescence intensity (a.u.).

With “TTTTTTTCTGGGGTTGCTTAGAATGGTACTAACTATGATTCGGAGTCACCTAGTGCAG”, the binding signal was 8900 fluorescence intensity (a.u.).

As for “AAAATTACACACAGCATGTACATTACGTCACACCTCATTCCGGAGTCACCTAGTGCAG”, the binding signal is 8240 fluorescence intensity (a.u.).

As to “ATATGCTCATTATTAACCATCTAGCCCATCGTTAATCTAGCGGAGTCACCTAGTGCAG”, the binding signal is 9090 fluorescence intensity (a.u.).

As for “AATTAATCTAACACCCTGGCATCGACCGCCACTCACATATCGGAGTCACCTAGTGCAG”, the binding signal was 8870 fluorescence intensity (a.u.).

Turning to “GAGAGAGGACGGATGCCGAGGAGGCGTTAGCAATGTTGACCGGAGTCACCTAGTGCAG”, the binding signal was 8250 fluorescence intensity (a.u.).

In the case of “AACGAACCTCTATAGCTATCCCTTGATAATTCCCTGCATCCGGAGTCACCTAGTGCAG”, the binding signal is 9520 fluorescence intensity (a.u.).

Take “TCCGCACTCCTTGTCGCACATCCCCGCGGGCATGCCCGTTCGGAGTCACCTAGTGCAG”: the binding signal is 8830 fluorescence intensity (a.u.).

On to “GATAGCCACATATATATCGTTGTTTCCTGCTACTAATATACGGAGTCACCTAGTGCAG”, for which the binding signal was 8350 fluorescence intensity (a.u.).

As to “CATGATTTTACTTTCTTTTCAGGTCTTAGGAGTGAGCTTCCGGAGTCACCTAGTGCAG”, the binding signal was 8720 fluorescence intensity (a.u.).

“TACATACACACATGCTAGCTACTCTCATCACTCTAAATTCCGGAGTCACCTAGTGCAG”: the binding signal is 10500 fluorescence intensity (a.u.).

With “ACGCCGACGCCTCCTCCACCGTCGATTTGCACTTGCGCACCGGAGTCACCTAGTGCAG”, the binding signal is 11200 fluorescence intensity (a.u.).

“GGGCCCACCTATCAGGCCTGTCCACGTTGACCACATCGCGCGGAGTCACCTAGTGCAG”: the binding signal was 12200 fluorescence intensity (a.u.).

On to “TTTGGTACACATTCATGTATCGACCGTATTTTCATGTCCTCGGAGTCACCTAGTGCAG”, for which the binding signal is 8180 fluorescence intensity (a.u.).

Regarding “AATCCTCTGTATCACCCCAAAAATTGTTTGTAATTCTGTTCGGAGTCACCTAGTGCAG”, the binding signal is 9280 fluorescence intensity (a.u.).

As to “ACCGGCCCAGAACAGTTGGGCAGCCCACGAAGTCACCAACCGGAGTCACCTAGTGCAG”, the binding signal was 8540 fluorescence intensity (a.u.).

On to “ACACCATCCTTCGATTATTCATTTATTCTTGCCTGACTGACGGAGTCACCTAGTGCAG”, for which the binding signal was 11400 fluorescence intensity (a.u.).

With “GACCGAGCAGTCCTCCTATGTAAGTTCTTCACTTCTTGTTCGGAGTCACCTAGTGCAG”, the binding signal is 8940 fluorescence intensity (a.u.).

As to “CCTGTCCTGTTACGCTTGACTACTCTCGTTGCCACGTCACCGGAGTCACCTAGTGCAG”, the binding signal is 10700 fluorescence intensity (a.u.).

As for “GTTATTCTCTTATTTCACGATTATTAAGCAGACTCTGTTTCGGAGTCACCTAGTGCAG”, the binding signal was 9600 fluorescence intensity (a.u.).

With “ATTAATTATGTCATAAACTGTTGTTGATTTGTGCCAGTTTCGGAGTCACCTAGTGCAG”, the binding signal is 10000 fluorescence intensity (a.u.).

With “TGGCCGCGGCTGCTGCTGAGTGTGGTGGTGGTGGGAGGCACGGAGTCACCTAGTGCAG”, the binding signal is 8880 fluorescence intensity (a.u.).

As to “TATACCGCCTCTGTTCCATCTCTCACACTAGCTTCAGGGACGGAGTCACCTAGTGCAG”, the binding signal is 10800 fluorescence intensity (a.u.).

Take “CCAGGATGATCTGTTCTTGATCGCTTTACCTTTGTTTCTCCGGAGTCACCTAGTGCAG”: the binding signal is 9240 fluorescence intensity (a.u.).

In the case of “CCTTACGAATTTGTACCATGCATTGTTTGTGGCCTAGCTACGGAGTCACCTAGTGCAG”, the binding signal is 9750 fluorescence intensity (a.u.).

For the sequence “TAATTAATTAATTCGATCCATTTCTGCATAGTTTGCAATTCGGAGTCACCTAGTGCAG”, the binding signal was 8370 fluorescence intensity (a.u.).

Regarding “TGTGCCGCCGTGCTGTTGTCCATCCACACTGGCGACTCCGCGGAGTCACCTAGTGCAG”, the binding signal is 13600 fluorescence intensity (a.u.).

As to “CCTCCGCCGCCCTAACTACCTCCACCCTTGCCGATGACGGCGGAGTCACCTAGTGCAG”, the binding signal is 8120 fluorescence intensity (a.u.).

For the sequence “TTCAACTGGCCACATAACTCATTCCATTTCCACGCACAAACGGAGTCACCTAGTGCAG”, the binding signal is 8210 fluorescence intensity (a.u.).

Consider “TCGTCGGGTTGGTCTCACCTTTTTCTCCTTTTCTTTTTTTCGGAGTCACCTAGTGCAG”, for which the binding signal was 12100 fluorescence intensity (a.u.).

Take “TACTTCTGCCACATGGATACATCACATAACACACTCGCAACGGAGTCACCTAGTGCAG”: the binding signal was 9260 fluorescence intensity (a.u.).

Regarding “CTGTCGCAATCTTGCTTCGGTTCATTTTGTCCCTTTGCTCCGGAGTCACCTAGTGCAG”, the binding signal is 11200 fluorescence intensity (a.u.).

Regarding “CCCAAGTTTGACTCCCTCGAGACCCACCACCACCACCACGCGGAGTCACCTAGTGCAG”, the binding signal is 8970 fluorescence intensity (a.u.).

For “TATCCCTACTACTATAAAAGGGCAGTCGTATCTTTCCTTCCGGAGTCACCTAGTGCAG”, the binding signal is 9520 fluorescence intensity (a.u.).

Regarding “ACACGTGTGGTAACCCTTCGCTCTGCATCCTCGTCTTAATCGGAGTCACCTAGTGCAG”, the binding signal is 8880 fluorescence intensity (a.u.).

For “GAAGTCGTTATTTCCAAGCTACGTCCTGATTCTATTGATACGGAGTCACCTAGTGCAG”, the binding signal is 11100 fluorescence intensity (a.u.).

Take “CTCCCATGCGTGCTAAATTAGCGTTCATGGTTGTATCTTGCGGAGTCACCTAGTGCAG”: the binding signal is 9750 fluorescence intensity (a.u.).
